{"source": "PubChem BioAssay AID540276", "about": "(National Center for Advancing Translational Sciences (NCATS), 2011)", "note": "Hit rate of the full screen: of about 300,000 compounds, about 5,400 (1.8%) were called active. Inconclusive results, whose numbers are uncertain, are shown with a selection of clear calls. The call rests on the fitted dose curve; tested in HEK293 cells. Potencies beside an inconclusive call are fits to weak or partial responses and may not hold up. On the % scale 0 is the no-effect control and ±100 the full control effect; potency means the concentration at half of the fitted maximal effect."}
{"assay": "qHTS for inhibitors of binding or entry into cells for Marburg Virus", "settings": "Marburg virus pseudotyped entry inhibition, cell reporter; activity change, negative = inhibition: at 37.8 µM (top of the series) unless noted"}
{"smiles": "c1ccc(Cn2c(SCc3nc4ccccc4s3)nnc2-c2ccco2)cc1", "activity change, negative = inhibition": "inactive: 5.63% [at 46.1 µM]"}
{"smiles": "CC1CCC/C(=N/NC(=O)c2ccccc2-n2cccc2)C1", "note": "(configuration not stated)", "activity change, negative = inhibition": "inactive: -4.67%"}
{"smiles": "COc1ccccc1C(=O)Nn1cnc2ccccc2c1=O", "activity change, negative = inhibition": "inactive: 14.5%"}
{"smiles": "COc1cc(C(=O)O/N=C(\\N)Cc2ccc([N+](=O)[O-])cc2)cc(OC)c1OC", "Potency": "active: 2.51 µM"}
{"smiles": "O=S(=O)(/N=C(\\Nc1ccc(F)cc1)C(F)(F)F)c1ccccc1", "activity change, negative = inhibition": "inactive: 19%"}
{"smiles": "COc1cccc(C(=O)COc2ccccc2N2C(=O)C3C4C=CC(C4)C3C2=O)c1", "note": "(configuration not stated)", "Potency": "inconclusive: 11.6 µM [activator, partial curve, poor fit]"}
{"smiles": "O=C(Nc1ccc2c(c1)OCCO2)c1cnc2ccccn2c1=O", "Potency": "inconclusive: 29.1 µM [inhibitor, single point]"}
{"smiles": "CCOC(=O)CNC(=O)CSc1ncnc2c1cnn2Cc1ccccc1", "Potency": "inconclusive: 1.26 µM [activator, single point]"}
{"smiles": "O=C(Nc1ccc2c(c1)OCO2)N1CCN(C(=O)C2CCCO2)CC1", "note": "(configuration not stated)", "Potency": "inconclusive: 6.51 µM [activator, full curve, poor fit]"}
{"smiles": "CCC(=O)OCCNc1nc(-c2ccccc2)nc2ccccc12", "Potency": "inconclusive: 0.562 µM [inhibitor, full curve, poor fit]"}
{"smiles": "CCCN1CCc2c(sc(NC(=O)c3ccc(S(=O)(=O)N(C)c4ccccc4)cc3)c2C(=O)NC)C1", "Potency": "inconclusive: 35.5 µM [inhibitor, single point]"}
{"smiles": "COc1ccc(C(=O)NNC(=O)CSc2nnc(COc3ccc4ccccc4c3)n2C)cc1", "activity change, negative = inhibition": "inactive: 3.65%"}
{"smiles": "S=C(Nc1ccc(Cl)cc1)NC1CC2CCC(C1)N2Cc1ccccc1", "note": "(configuration not stated)", "Potency": "inconclusive: 4.47 µM [inhibitor, partial curve, poor fit]"}
{"smiles": "CC(CN1CCOCC1)OC(=O)/C=C/c1ccccc1", "note": "(configuration not stated)", "activity change, negative = inhibition": "inactive: 19.2% [at 46.1 µM]"}
{"smiles": "Cc1ccccc1-c1nnn(CC(=O)Nc2ccc3c(c2)OCCO3)n1", "activity change, negative = inhibition": "inactive: -4.49% [at 46.1 µM]"}
{"smiles": "O=S1(=O)C=C(Oc2ccc3ccccc3c2)c2ccccc21", "Potency": "inconclusive: 23.1 µM [inhibitor, single point]"}
{"smiles": "COc1ccc(NC(=O)CSc2nccn2C)c([N+](=O)[O-])c1", "activity change, negative = inhibition": "inactive: 23.8% [at 46.1 µM]"}
{"smiles": "CCCN(CC(=O)Nc1ccccc1OC)C(=O)c1cccc(S(=O)(=O)NCc2ccccc2)c1", "Potency": "inconclusive: 15.8 µM [inhibitor, single point]"}
{"smiles": "COc1cc2c(cc1OC)/C(=C/C(=O)c1ccc(F)cc1)NCC2", "activity change, negative = inhibition": "inactive: -19.2%"}
{"smiles": "CC(C)(Cl)C1Cc2cc3ccc(=O)oc3cc2O1", "note": "(configuration not stated)", "activity change, negative = inhibition": "inactive: 15.1%"}
{"smiles": "CCN1CCN(c2nc(-c3ccccc3)c3ccccc3n2)CC1", "Potency": "inconclusive: 10 µM [inhibitor, partial curve, poor fit]"}
{"smiles": "CC(C)(C)C(=O)/C(=C/c1ccncc1)n1cncn1", "Potency": "active: 4.11 µM"}
{"smiles": "Cc1cc(C)c2nc(SC(C)C#N)cc(C)c2c1", "note": "(configuration not stated)", "activity change, negative = inhibition": "inactive: -18%"}
{"smiles": "Oc1ccc(/C(Cc2ccccn2)=N\\Nc2ccccc2)c(O)c1", "Potency": "active: 8.91 µM"}
{"smiles": "Cc1cccc(C)c1NC(=O)c1cccc(N2C(=O)C3CCC(C)CC3C2=O)c1", "note": "(configuration not stated)", "activity change, negative = inhibition": "inactive: 3.36%"}
{"smiles": "COC(=O)c1cc2occc2n1CC(=O)Nc1ccc(OC)c(OC)c1OC", "activity change, negative = inhibition": "inactive: 0.45%"}
{"smiles": "COc1ccc(C(=O)Nc2ccc(Br)cc2F)cc1S(=O)(=O)N1CCCC1", "Potency": "inconclusive: 3.98 µM [inhibitor, partial curve, poor fit]"}
{"smiles": "COc1ccc(/C=C/C(=O)NCCCn2ccnc2)cc1", "Potency": "inconclusive: 35.5 µM [activator, single point]"}
{"smiles": "Cc1cccc(NC(=O)c2onc3c2CCCC3)n1", "Potency": "active: 1.26 µM"}
{"smiles": "Cc1csc(NC(=S)Nc2cccc(Cl)c2)n1", "Potency": "inconclusive: 6.31 µM [inhibitor, single point]"}
{"smiles": "Cc1ccc(NC2=C/C(=N/S(=O)(=O)c3cccs3)c3ccccc3C2=O)cc1", "Potency": "active: 4.61 µM"}
{"smiles": "O=C(OCC12CC3CC(CC(C3)C1)C2)c1ccc(NCc2cc(O)ccc2O)cc1", "Potency": "inconclusive: 4.47 µM [inhibitor, full curve, poor fit]"}
{"smiles": "CCc1ccc(OCC(=O)NC(=S)Nc2ccc(S(=O)(=O)NC3CCCCC3)cc2)cc1", "Potency": "inconclusive: 0.316 µM [activator, partial curve, poor fit]"}
{"smiles": "Clc1ccc(CSc2snnc2-c2ccccc2)cc1", "Potency": "inconclusive: 6.51 µM [inhibitor, partial curve, poor fit]"}
{"smiles": "O=C(CCCc1cccs1)Nc1nc(-c2ccc(F)cc2)cs1", "Potency": "inconclusive: 29.1 µM [inhibitor, single point]"}
{"smiles": "CN(C)CCCNC(=O)/C(=C\\c1ccc(-c2cccc([N+](=O)[O-])c2)o1)NC(=O)c1ccccc1", "Potency": "inconclusive: 3.98 µM [inhibitor, full curve, poor fit]"}
{"smiles": "O=C(c1ccc(S(=O)(=O)N2CCCCC2)cc1)N1CCc2ccccc2C1", "Potency": "inconclusive: 6.31 µM [inhibitor, partial curve, poor fit]"}
